Assay results from PubChem BioAssay AID493014 (National Center for Advancing Translational Sciences (NCATS), 2011).
Out of some 340,000 compounds screened, about 170 (0.05%) were called active. Inconclusive means that the source gave no clear call. Such entries were picked first, then a sample of the others. Calls follow the shape of the dose curve; as a rule, active = well fitted inhibition curve with a large enough effect in the signal ratio, with a control signal flat (not every such curve was filed as active); inconclusive = small, poorly fitted or top-dose-only effect, or effect the other way, or a change in a side signal; inactive = flat fitted curve, though single readings scatter; the % refers to the signal ratio. Potencies beside an inconclusive call are fits to weak or partial responses and may not hold up.

Experiment: qHTS Assay to Find Inhibitors of Chronic Active B-Cell Receptor Signaling;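 as to activity change, negative = inhibition: plate controls were basal doxycycline-induced cells for no effect and cells given 10 µM MG132 for full effect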
Details: ABC-DLBCL IkBa-CBG/CBR reporter, luminescence ratio (green luciferase fused to IkBa over red control in TMD8 lymphoma cells), 4 h; activity change, negative = inhibition: at 46.1 µM (top of the series)
Summary of the method: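 Doxycycline induced both beetle luciferases in TMD8 lymphoma cells; IKK-driven degradation limits the IkappaBalpha-fused green signal, while red luminescence normalises for cell number and nonspecific effects. Compounds tested up to 46 uM, 4 hrs.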
Potency is read from the fitted curve at half-maximal effect.

| SMILES | Potency | activity change, negative = inhibition |
| --- | --- | --- |
| C(=N\Nc1nc2ccccc2s1)/c1ccc2c(c1)OCO2 | inconclusive: 4.11 µM [falling, single point] |  |
| CC(C)(C)NC(=O)CSc1nnc(Cc2ccc3c(c2)OCO3)n1C1CCCCC1 |  | inconclusive: 6.08% |
| CCCc1ccc(OCc2ccc(C(=O)O)o2)c(OC)c1 | inconclusive: 1.84 µM [rising, full curve, poor fit] |  |
| CCn1c(Cc2ccccc2)nnc1SCC(=O)Nc1ccc(S(N)(=O)=O)cc1 |  | inconclusive: -17.9% |
| C/C(CC(=O)Nc1ccccn1)=N\NC(=O)c1ccccc1 | inconclusive: 2.06 µM [falling, single point] |  |
| O=C(N/N=C\c1cn[nH]c1-c1ccccc1)c1cccs1 | inconclusive: 6.51 µM [falling, single point] |  |
| COc1ccc(NC(=O)C2=CC(c3ccc(C)cc3)=NS(=O)(=O)N2C)cc1 |  | inactive |
| CC(=O)Nc1ccc(S(=O)(=O)N(Cc2cccnc2)Cc2cc3ccc(C)cc3[nH]c2=O)cc1 |  | inactive |
| CCOC(=O)c1cc(C(=O)Nc2ccccc2F)nn1C | inconclusive: 4.11 µM [falling, partial curve] |  |
| CCc1ccc(/C=N/NC(=O)c2cc(-c3ccccc3OC)nc3ccccc23)s1 | inconclusive: 20.6 µM [falling, single point] |  |
| Cc1cccc(C)c1C(OCCN(C)C)C1CCCCC1 (stereo not given) |  | inconclusive: -5.83% |
| COc1ccc(/C=C2\SC(=S)N(CCC(=O)Nc3cccc(C(=O)O)c3)C2=O)cc1OC | inconclusive: 22.4 µM [falling, single point] |  |
| C(#CCN1CCC(Cc2ccccc2)CC1)COCCOCc1ccccc1 |  | inactive |
| O=C(Nc1c(Cl)cc(Cl)cc1-c1nc2ccccc2s1)c1ccc(Br)o1 |  | inactive |
| O=C(COC(=O)CNC(=O)c1ccccc1Cl)Nc1ccccc1Cl |  | inconclusive: 10.7% |
| COc1ccc(OCc2nnc(SCC(=O)NNC(=O)c3ccc(C)cc3)n2C)cc1 |  | inactive |
| Cc1nc(S(=O)(=O)Cc2ccccc2Cl)nc2c1CCC2 |  | inconclusive: 3.2% |
| Nc1c(N2CCOCC2)cc(Cl)c2nonc12 |  | inconclusive: -11.3% |
| CCOC(=O)c1ccc(-n2c(CCC(=O)O)ccc2-c2ccccc2)cc1 | inconclusive: 7.94 µM [rising, partial curve] |  |
| C=CCn1cccc(C(=O)Nc2ccc(Cl)cc2)c1=O |  | inactive |
| CC(C)NC[C@H](O)c1ccc(O)c(O)c1 |  | inactive |
| CCCc1c(O)nc(SCC(=O)NCCc2ccc(OC)c(OC)c2)[nH]c1=O |  | inconclusive: 7.42% |
| CCCCN1C(=O)c2ccc(C(=O)Nc3ccc(S(=O)(=O)N(C)C)cc3)cc2C1=O |  | inconclusive: 4.3% |
| Brc1ccc(-c2noc(COc3ccc4ccccc4c3)n2)o1 | inconclusive: 1.64 µM [rising, full curve] |  |
| O=C(O)c1ccc(Nc2nc(-c3ccccc3)c3ccccc3n2)cc1 |  | inconclusive: 357% |
| COc1ccc(N2C(=O)N3[C@H](c4ccc(Br)cc4)[C@@H]4C(=O)N(C(C)(C)C)C(=O)[C@@H]4[C@]3(Cc3ccccc3)C2=O)cc1 |  | inactive |
| COc1ccc(-n2c(SCC(=O)Nc3ccc(C(N)=O)cc3)nc3ccccc3c2=O)cc1OC |  | inconclusive: -13.9% |

| SMILES | Potency | activity change, negative = inhibition |
| --- | --- | --- |
| C/C(=N\NC(=O)C1CC1)c1ccc(Cl)cc1 |  | inconclusive: 0.922% |
| COc1cc(CC(=O)OCC(=O)Nc2cccc([N+](=O)[O-])c2)cc(OC)c1OC |  | inconclusive: -22.3% |
| Oc1cccc2ccc(/C=C/c3ccccc3Br)nc12 | inconclusive: 35.5 µM [falling, single point] |  |
| C[C@H](CO)N1C[C@H](C)[C@@H](CN(C)Cc2ccc(Oc3ccccc3)cc2)Oc2c(NC(=O)c3ccncc3)cccc2C1=O |  | inconclusive: -6.9% |
| Cc1c(CC(C)C)nc(N)c(C#N)c1-c1ccccc1 |  | inconclusive: 6.04% |
| O=C(O)c1ccc(N/N=C/c2cn(Cc3ccc(F)cc3)c3ccccc23)cc1 |  | inconclusive: 7.8% |
| Cc1ccc(S(=O)(=O)Nc2nc3ccccc3nc2NCC2CCCO2)cc1C (stereo not given) |  | inactive |
| CNC(=O)/C(C#N)=C\c1ccc(CNS(=O)(=O)c2ccc(Cl)cc2)o1 |  | inactive |
| C=CCn1cnc2c(NCc3ccccc3)ncnc21 | inconclusive: 5.17 µM [falling, single point] |  |
| COc1cccc(NC(=O)/C=C/c2ccc(S(=O)(=O)N3CCOCC3)cc2)c1 |  | inconclusive: -9.87% |
| O=C(Cc1ncc(C(F)(F)F)cc1Cl)Nc1ccc(F)cc1 | inconclusive: 32.6 µM [falling, partial curve, poor fit] |  |
| COc1ccccc1-c1nc(C(=O)NCC2CCCO2)cc2c1[nH]c1ccccc12 (stereo not given) |  | inconclusive: 30.5% |
| COc1cc(NC(=O)c2cccs2)c(C(=O)OCC(=O)NC(C)c2ccccc2)cc1OC (stereo not given) |  | inconclusive: -26.3% |
| Cc1cc(C)c(S(=O)(=O)c2ccc(F)cc2C)c(Cl)n1 |  | inconclusive: -8.04% |
| Cc1nnc(NC(=O)C2COc3ccccc3O2)s1 (stereo not given) |  | inconclusive: -15.2% |
| C[C@]1(C(=O)NCCCNc2ncc(C(F)(F)F)cc2Cl)C=C[C@@H](Cc2ccccc2)N1C(=O)c1ccccc1 |  | inconclusive: -19.4% |
| C[C@@H](C(=O)Nc1ccc2ccccc2c1)[C@@H]1C[C@@]1(C)[C@@H](NC(=O)c1cnccn1)c1ccccc1 |  | inactive |
| OC(COCc1cccs1)CN1CCCCCC1 (stereo not given) |  | inactive |
| CCOC(=O)c1cc(C#N)c(N)nc1C |  | inactive |
| C=C(C)C(=O)Nc1cccc(C2=NOC3(C2)C[C@@H](C(N)=O)N(C(=O)c2ccc(Cl)cc2)C3)c1 (stereo not given in full) |  | inactive |
| CC1=C(C(=O)OCc2ccc3c(c2)OCO3)C(c2ccc(F)cc2)NC(=O)N1 (stereo not given) |  | inconclusive: -7.87% |
| COc1ccc(C2(C(=O)N3CCCC3)CCOCC2)cc1OC |  | inconclusive: 2.26% |
| COCCNc1c(-c2cc3ccc(C)c(C)c3[nH]c2=O)nc2ccccn12 | inconclusive: 2.24 µM [falling, full curve, poor fit] |  |
| COc1ccc(Cl)cc1NC(=S)N(Cc1ccc(C(=O)O)cc1)Cc1ccc(OC)c(OC)c1 |  | inconclusive: 14.2% |
| N#C/C(=C\c1ccc(-c2ccccc2[N+](=O)[O-])o1)C(=O)N1CCOCC1 |  | inconclusive: 0.231% |
| Cc1ccc(NS(=O)(=O)N2CCOCC2)cc1Cl |  | inconclusive: 2.18% |
| Cc1nc(-c2ccc(NC(=O)c3cccs3)cc2)cs1 | inconclusive: 20.6 µM [falling, partial curve] |  |

| SMILES | Potency | activity change, negative = inhibition |
| --- | --- | --- |
| O=C(NCCCN1CCCCC1)C1CCN(c2ncnc3c2nc2n3CCCCC2)CC1 |  | inconclusive: 1.21% |
| CN(C)c1ccc(Nc2nc(N)c3ccccc3n2)cc1 | inconclusive: 31.6 µM [falling, partial curve] |  |
| C/C(CC(=O)NCc1ccco1)=N\NC(=O)Cc1ccc(-c2ccccc2)cc1 |  | inconclusive: -23.2% |
| O=C(Nc1ccc(-c2nc3ccccc3o2)cc1)c1ccc(N2C(=O)C3C4C=CC(C4)C3C2=O)cc1 (stereo not given) | inconclusive: 32.6 µM [rising, single point] |  |
| O=C(Nc1ccc(F)cc1)Nc1ccccc1NS(=O)(=O)c1cccs1 |  | inactive |
| N#Cc1c(-c2ccncc2)c2c([nH]c1=S)CCCC2 |  | inactive |
| CCSc1nsc(NC(=O)Nc2cccc(OC)c2)n1 | inconclusive: 20 µM [falling, partial curve] |  |
| O=C(NNC(=S)Nc1ccccc1)c1cccc(Br)c1 | inconclusive: 29.1 µM [rising, single point] |  |
| CN1CCN(CCP(=O)(c2ccccc2)c2ccccc2)CC1 |  | inconclusive: -3.39% |
| c1ccc(-c2nc(NCc3ccco3)c3ccccc3n2)cc1 | inconclusive: 9.2 µM [rising, partial curve] |  |
| Cc1ccc(C(=O)Cn2c(=N)n(CCN3CCOCC3)c3ccccc32)cc1 |  | inactive |
| O=C(COC(=O)c1ccncc1)Nc1ccccc1 | inconclusive: 35.5 µM [falling, single point] |  |
| COc1ccc(N(C)C2=NS(=O)(=O)c3ccccc32)cc1 | inconclusive: 8.2 µM [falling, partial curve, poor fit] |  |
| Cc1ccc(OCC(=O)NC2CCCCCC2)cc1C | inconclusive: 31.6 µM [falling, partial curve, poor fit] |  |
| CCCN(C(=O)CCSc1ccc(F)cc1)c1c(N)n(Cc2ccccc2)c(=O)[nH]c1=O |  | inactive |
| CC(=O)c1ccc(NC(=O)C2CCCN(S(=O)(=O)c3cccc4nonc34)C2)cc1 (stereo not given) |  | inconclusive: 10.5% |
| O=C(CN1c2ccccc2Sc2ccccc21)N/N=C/c1ccccc1 |  | inactive |
| COCc1c(C(=O)OCC(=O)N2CCCC2=O)oc2ccccc12 |  | inconclusive: -2.4% |
| N#CCc1nc(CSc2nc3ccccc3o2)cs1 |  | inconclusive: 8.88% |
| Nc1ccc(Oc2cccc(Oc3ccc(N)cc3)c2)cc1 | inconclusive: 11.2 µM [falling, partial curve, poor fit] |  |
| COc1ccc(-c2ccc(/C=C(\NC(=O)c3ccccc3)C(=O)N3CCOCC3)o2)cc1 |  | inconclusive: -1.56% |
| CCCCC(=O)NNC(=O)N1c2ccccc2Sc2ccccc21 |  | inconclusive: 0.874% |
| COc1ccc(-c2nc3cc(C)ccn3c2NC2CCCCC2)cc1SC1CCCCC1 |  | inconclusive: 0.0503% |
| CCOC(=O)C1(Cc2cccc(OC)c2)CCN(Cc2cccc(OC)c2OC)CC1 |  | inconclusive: -2.71% |
| Cc1coc2c1c(C)cc1oc(=O)c(Cc3ccccc3)c(C)c12 |  | inactive |
| Cc1ccccc1Nc1n[nH]c(C)c1[N+](=O)[O-] |  | inactive |

Given with bars between the fields: 6 of the compounds above.
SMILES | Potency | activity change, negative = inhibition
O=C(NNC(=S)Nc1ccccc1)c1cccc(Br)c1 | inconclusive: 29.1 µM [rising, single point] | 
CN1CCN(CCP(=O)(c2ccccc2)c2ccccc2)CC1 |  | inconclusive: -3.39%
c1ccc(-c2nc(NCc3ccco3)c3ccccc3n2)cc1 | inconclusive: 9.2 µM [rising, partial curve] | 
Cc1ccc(C(=O)Cn2c(=N)n(CCN3CCOCC3)c3ccccc32)cc1 |  | inactive
O=C(COC(=O)c1ccncc1)Nc1ccccc1 | inconclusive: 35.5 µM [falling, single point] | 
COc1ccc(N(C)C2=NS(=O)(=O)c3ccccc32)cc1 | inconclusive: 8.2 µM [falling, partial curve, poor fit] | 
